According to the supplement of paper PMC4604168 (melanoma cell lines):
The other results are listed elsewhere or left out. Single values are uncertain, as repeats are few or missing.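 Cells were imaged in 1,536-well plates, and nuclei stained with an antibody against cleaved PARP were counted against all DNA-stained nuclei to give the apoptosis fraction. Screening doses were chosen to leave most cells alive, and resting and induced cleaved-PARP levels differ strongly between cell lines.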

Tests used:
Experiment in all cases: cleaved PARP positive nuclei fraction relative to DMSO control; melanoma cells; higher = more apoptosis
Settings in all cases: library dose: low library concentration; 72 h
MZ2-MEL = tested on: MZ2-MEL
MeWo = tested on: MeWo
RPMI7951 = tested on: RPMI7951
RVH-421 = tested on: RVH-421
SkMel28 = tested on: SkMel28
SkMel2 = tested on: SkMel2
SkMel30 = tested on: SkMel30
UACC62 = tested on: UACC62
WM115 = tested on: WM115
WM1716 = tested on: WM1716
WM1745 = tested on: WM1745
WM3526 = tested on: WM3526
WM3619 = tested on: WM3619
WM451Lu = tested on: WM451Lu

| SMILES | cleaved PARP positive nuclei fraction (MZ2-MEL) [%] | cleaved PARP positive nuclei fraction (MeWo) [%] | cleaved PARP positive nuclei fraction (RPMI7951) [%] | cleaved PARP positive nuclei fraction (RVH-421) [%] | cleaved PARP positive nuclei fraction (SkMel28) [%] | cleaved PARP positive nuclei fraction (SkMel2) [%] | cleaved PARP positive nuclei fraction (SkMel30) [%] | cleaved PARP positive nuclei fraction (UACC62) [%] | cleaved PARP positive nuclei fraction (WM115) [%] | cleaved PARP positive nuclei fraction (WM1716) [%] | cleaved PARP positive nuclei fraction (WM1745) [%] | cleaved PARP positive nuclei fraction (WM3526) [%] | cleaved PARP positive nuclei fraction (WM3619) [%] | cleaved PARP positive nuclei fraction (WM451Lu) [%] |
| --- | --- | --- | --- | --- | --- | --- | --- | --- | --- | --- | --- | --- | --- | --- |
| CS(=O)(=O)CCNCc1ccc(-c2ccc3ncnc(Nc4ccc(OCc5cccc(F)c5)c(Cl)c4)c3c2)o1 [lapatinib] + OCc1c[nH]c2ccccc12 [Indole-3-carbinol] (first compound 0.8 µM, partner dose 0.8 µM) | 92.6 | 109 | 95.2 | 141 | 56.2 | 57.8 | 95.9 | 98.5 | 136 | 78.4 | 93 | 89.4 | 215 | 50.1 |
| Cn1c(=O)n(-c2ccc(C(C)(C)C#N)cc2)c2c3cc(-c4cnc5ccccc5c4)ccc3ncc21 + OCc1c[nH]c2ccccc12 [Indole-3-carbinol] (first compound 0.004 µM, partner dose 0.8 µM) | 126 | 34.9 | 106 | 93.9 | 43.8 | 163 | 124 | 290 | 153 | 106 | 90.1 | 46.3 | 114 | 87.2 |
| O=C(O)[C@@H]1[O][Sb](=[O])([O][Sb]2(=[O])[O][C@H]([C@H](O)CO)[C@H](O)[C@H](C(=O)O)[O]2)[O][C@H]([C@H](O)CO)[C@@H]1O (stereo not given in full) [stibogluconate] + C#Cc1cccc(Nc2ncnc3cc(OCCOC)c(OCCOC)cc23)c1 [erlotinib] (first compound 2 µM, partner dose 0.8 µM) | 54.9 | 27.5 | 50 | 94.5 | 65.7 | 162 | 72 | 176 | 71.5 | 42.9 | 101 | 77.9 | 101 | 279 |
| Nc1nc(F)nc2c1ncn2[C@@H]1O[C@H](CO)[C@@H](O)[C@@H]1O [fludarabine] + C[C@]1(c2nc3c(C(N)=O)cccc3[nH]2)CCCN1 [Veliparib] (first compound 0.2 µM, partner dose 1.4 µM) | 147 | 611 | 64 | 11.7 | 45.9 | 670 | 2810 | 137 | 74.4 | 153 | 101 | 561 | 97.9 | 67.8 |
| CC(C)C[C@H](NC(=O)[C@H](Cc1ccccc1)NC(=O)c1cnccn1)B(O)O [Bortezomib] + Cn1c(Nc2ccc(C(F)(F)F)cc2)nc2cc(Oc3ccnc(-c4ncc(C(F)(F)F)[nH]4)c3)ccc21 [CHIR265] (first compound 0.001 µM, partner dose 0.08 µM) | 326 | 149 | 71.6 | 366 | 116 | 137 | 214 | 354 | 200 | 624 | 282 | 83.8 | 1280 | 115 |
| CCCS(=O)(=O)Nc1ccc(F)c(C(=O)c2c[nH]c3ncc(Cl)cc23)c1F + Nc1ncn([C@H]2C[C@H](O)[C@@H](CO)O2)c(=O)n1 [decitabine] (first compound 0.08 µM, partner dose 0.1 µM) | 145 | 96.3 | 24 | 225 | 94.4 | 97.2 | 57.3 | 153 | 139 | 163 | 98.8 | 128 | 124 | 130 |
| C=C(c1ccc(C(=O)O)cc1)c1cc2c(cc1C)C(C)(C)CCC2(C)C [Bexarotene] + C[C@]1(c2nc3c(C(N)=O)cccc3[nH]2)CCCN1 [Veliparib] (first compound 2 µM, partner dose 1.4 µM) | 121 | 60.3 | 59 | 112 | 87.6 | 186 | 39 | 54.1 | 147 | 83.8 | 110 | 84.8 | 102 | 150 |
| CNC(=O)c1cc(Oc2ccc(NC(=O)Nc3ccc(Cl)c(C(F)(F)F)c3)cc2)ccn1 [sorafenib] + COc1ccc(Cl)c(Nc2nc3ccccc3nc2NS(=O)(=O)c2cccc(NC(=O)C(C)(C)N)c2)c1 [XL147] (first compound 0.4 µM, partner dose 0.8 µM) | 57.8 | 89.1 | 128 | 273 | 73.7 | 115 | 88.5 | 76.9 | 85.3 | 64.2 | 228 | 83.7 | 119 | 45.7 |
| O=C(O)c1ccc2c(c1)nc(Nc1cccc(Cl)c1)c1ccncc12 + Cc1nc(Nc2ncc(C(=O)Nc3c(C)cccc3Cl)s2)cc(N2CCN(CCO)CC2)n1 [dasatanib] (first compound 0.4 µM, partner dose 0.004 µM) | 177 | 84.1 | 65.6 | 119 | 85.1 | 227 | 53.1 | 126 | 171 | 307 | 119 | 80.5 | 104 | 74.6 |
| Nc1nc(F)nc2c1ncn2[C@@H]1O[C@H](CO)[C@@H](O)[C@@H]1O [fludarabine] + Nc1cccc2c1CN(C1CCC(=O)NC1=O)C2=O [lenalidomide] (first compound 0.2 µM, partner dose 1 µM) | 44.3 | 1440 | 189 | 61.6 | 115 | 434 | 1440 | 59.7 | 172 | 297 | 92.8 | 1800 | 77.7 | 237 |
| O=C(O)c1ccc2c(c1)nc(Nc1cccc(Cl)c1)c1ccncc12 + Nc1ccn([C@@H]2O[C@H](CO)[C@@H](O)C2(F)F)c(=O)n1 [gemcitabine] (first compound 0.4 µM, partner dose 0.0004 µM) | 163 | 100 | 214 | 115 | 32.3 | 113 | 98.7 | 56.7 | 137 | 81.3 | 100 | 75.1 | 142 | 44.7 |
| C=C(c1ccc(C(=O)O)cc1)c1cc2c(cc1C)C(C)(C)CCC2(C)C [Bexarotene] + Cc1nc(Nc2ncc(C(=O)Nc3c(C)cccc3Cl)s2)cc(N2CCN(CCO)CC2)n1 [dasatanib] (first compound 2 µM, partner dose 0.004 µM) | 141 | 111 | 96.4 | 171 | 134 | 97.3 | 49.3 | 130 | 77.8 | 177 | 132 | 50.2 | 110 | 107 |
| O=C(O)[C@@H]1[O][Sb](=[O])([O][Sb]2(=[O])[O][C@H]([C@H](O)CO)[C@H](O)[C@H](C(=O)O)[O]2)[O][C@H]([C@H](O)CO)[C@@H]1O (stereo not given in full) [stibogluconate] + CNC(=O)c1cc(Oc2ccc(NC(=O)Nc3ccc(Cl)c(C(F)(F)F)c3)cc2)ccn1 [sorafenib] (first compound 2 µM, partner dose 0.4 µM) | 106 | 48.5 | 171 | 107 | 67.8 | 81.1 | 66.7 | 26.8 | 63.8 | 103 | 100 | 144 | 95.1 | 89.4 |
| CC(C)C[C@H](NC(=O)[C@H](Cc1ccccc1)NC(=O)c1cnccn1)B(O)O [Bortezomib] + Nc1cccc2c1CN(C1CCC(=O)NC1=O)C2=O [lenalidomide] (first compound 0.001 µM, partner dose 1 µM) | 54.3 | 151 | 114 | 42.5 | 78.6 | 105 | 201 | 201 | 146 | 357 | 175 | 37.2 | 686 | 40.1 |
| CN1CCN(c2ccc3nc(-c4c(N)c5c(F)cccc5[nH]c4=O)[nH]c3c2)CC1 [Dovitinib] + C=C(c1ccc(C(=O)O)cc1)c1cc2c(cc1C)C(C)(C)CCC2(C)C [Bexarotene] (first compound 0.1 µM, partner dose 2 µM) | 196 | 102 | 122 | 119 | 120 | 52 | 256 | 33 | 182 | 516 | 120 | 338 | 105 | 71.1 |
| Cn1c(=O)n(-c2ccc(C(C)(C)C#N)cc2)c2c3cc(-c4cnc5ccccc5c4)ccc3ncc21 + C#Cc1cccc(Nc2ncnc3cc(OCCOC)c(OCCOC)cc23)c1 [erlotinib] (first compound 0.004 µM, partner dose 0.8 µM) | 78.4 | 52.3 | 152 | 103 | 99.4 | 78.6 | 36.2 | 266 | 69.1 | 56.2 | 113 | 76.3 | 102 | 34.7 |
| O=C(O)[C@@H]1[O][Sb](=[O])([O][Sb]2(=[O])[O][C@H]([C@H](O)CO)[C@H](O)[C@H](C(=O)O)[O]2)[O][C@H]([C@H](O)CO)[C@@H]1O (stereo not given in full) [stibogluconate] + Cc1nc(Nc2ncc(C(=O)Nc3c(C)cccc3Cl)s2)cc(N2CCN(CCO)CC2)n1 [dasatanib] (first compound 2 µM, partner dose 0.004 µM) | 80.5 | 84.3 | 239 | 102 | 57.6 | 152 | 54.6 | 98.2 | 138 | 122 | 149 | 113 | 101 | 94.3 |
| O=C(O)c1ccc2c(c1)nc(Nc1cccc(Cl)c1)c1ccncc12 + C[C@]1(c2nc3c(C(N)=O)cccc3[nH]2)CCCN1 [Veliparib] (first compound 0.4 µM, partner dose 1.4 µM) | 182 | 36.3 | 149 | 134 | 41 | 137 | 199 | 124 | 107 | 160 | 97.2 | 52.2 | 108 | 43.6 |
| Nc1ncn([C@H]2C[C@H](O)[C@@H](CO)O2)c(=O)n1 [decitabine] + Cc1nc(Nc2ncc(C(=O)Nc3c(C)cccc3Cl)s2)cc(N2CCN(CCO)CC2)n1 [dasatanib] (first compound 0.1 µM, partner dose 0.004 µM) | 68.6 | 121 | 133 | 107 | 49.4 | 38.3 | 42.7 | 85.2 | 159 | 62 | 211 | 42.6 | 98.8 | 43.8 |
| Cc1cc(Nc2cc(N3CCN(C)CC3)nc(/C=C/c3ccccc3)n2)n[nH]1 + CC(C)C[C@H](NC(=O)[C@H](Cc1ccccc1)NC(=O)c1cnccn1)B(O)O [Bortezomib] (first compound 0.04 µM, partner dose 0.001 µM) | 80.8 | 127 | 184 | 50.8 | 167 | 48.2 | 17.1 | 103 | 122 | 66 | 117 | 81.5 | 165 | 96.2 |

Part of the list above in another layout:
SMILES	cleaved PARP positive nuclei fraction (MZ2-MEL) [%]	cleaved PARP positive nuclei fraction (MeWo) [%]	cleaved PARP positive nuclei fraction (RPMI7951) [%]	cleaved PARP positive nuclei fraction (RVH-421) [%]	cleaved PARP positive nuclei fraction (SkMel28) [%]	cleaved PARP positive nuclei fraction (SkMel2) [%]	cleaved PARP positive nuclei fraction (SkMel30) [%]	cleaved PARP positive nuclei fraction (UACC62) [%]	cleaved PARP positive nuclei fraction (WM115) [%]	cleaved PARP positive nuclei fraction (WM1716) [%]	cleaved PARP positive nuclei fraction (WM1745) [%]	cleaved PARP positive nuclei fraction (WM3526) [%]	cleaved PARP positive nuclei fraction (WM3619) [%]	cleaved PARP positive nuclei fraction (WM451Lu) [%]
CC(C)C[C@H](NC(=O)[C@H](Cc1ccccc1)NC(=O)c1cnccn1)B(O)O [Bortezomib] + Cn1c(Nc2ccc(C(F)(F)F)cc2)nc2cc(Oc3ccnc(-c4ncc(C(F)(F)F)[nH]4)c3)ccc21 [CHIR265] (first compound 0.001 µM, partner dose 0.08 µM)	326	149	71.6	366	116	137	214	354	200	624	282	83.8	1280	115
Nc1ncn([C@H]2C[C@H](O)[C@@H](CO)O2)c(=O)n1 [decitabine] + Cc1nc(Nc2ncc(C(=O)Nc3c(C)cccc3Cl)s2)cc(N2CCN(CCO)CC2)n1 [dasatanib] (first compound 0.1 µM, partner dose 0.004 µM)	68.6	121	133	107	49.4	38.3	42.7	85.2	159	62	211	42.6	98.8	43.8
